Test results from article PMC9537309.
These are yes or no findings as the source states them, for the method shown. Binding seen in cells or lysates may run through a third protein. Here binding means that the protein was enriched with, or labelled near, the bait; the list need not be complete. Where a sequence is shown, tags or fusion partners need not be part of it.

Sequences of proteins named here, by UniProt entry; tags and fusion partners are left off.
UniProt Q92841: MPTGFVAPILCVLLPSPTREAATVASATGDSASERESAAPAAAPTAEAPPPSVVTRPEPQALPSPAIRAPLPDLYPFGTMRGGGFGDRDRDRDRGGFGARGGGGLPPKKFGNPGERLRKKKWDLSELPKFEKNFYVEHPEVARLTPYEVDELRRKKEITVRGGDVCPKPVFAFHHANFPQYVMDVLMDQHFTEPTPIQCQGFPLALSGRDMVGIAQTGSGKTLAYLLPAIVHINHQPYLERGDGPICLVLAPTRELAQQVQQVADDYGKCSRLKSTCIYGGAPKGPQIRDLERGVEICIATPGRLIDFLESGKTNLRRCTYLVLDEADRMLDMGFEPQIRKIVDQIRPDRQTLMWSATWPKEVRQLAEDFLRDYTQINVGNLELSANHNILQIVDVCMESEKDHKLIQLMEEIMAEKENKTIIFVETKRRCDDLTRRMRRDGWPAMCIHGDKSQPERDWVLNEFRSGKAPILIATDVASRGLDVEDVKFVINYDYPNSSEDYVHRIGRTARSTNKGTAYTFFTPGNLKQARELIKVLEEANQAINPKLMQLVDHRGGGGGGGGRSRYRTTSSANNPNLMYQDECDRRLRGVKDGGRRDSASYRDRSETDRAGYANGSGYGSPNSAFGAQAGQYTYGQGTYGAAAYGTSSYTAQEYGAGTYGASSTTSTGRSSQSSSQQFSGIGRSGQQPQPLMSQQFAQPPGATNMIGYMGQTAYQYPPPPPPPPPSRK
UniProt Q9UPQ9: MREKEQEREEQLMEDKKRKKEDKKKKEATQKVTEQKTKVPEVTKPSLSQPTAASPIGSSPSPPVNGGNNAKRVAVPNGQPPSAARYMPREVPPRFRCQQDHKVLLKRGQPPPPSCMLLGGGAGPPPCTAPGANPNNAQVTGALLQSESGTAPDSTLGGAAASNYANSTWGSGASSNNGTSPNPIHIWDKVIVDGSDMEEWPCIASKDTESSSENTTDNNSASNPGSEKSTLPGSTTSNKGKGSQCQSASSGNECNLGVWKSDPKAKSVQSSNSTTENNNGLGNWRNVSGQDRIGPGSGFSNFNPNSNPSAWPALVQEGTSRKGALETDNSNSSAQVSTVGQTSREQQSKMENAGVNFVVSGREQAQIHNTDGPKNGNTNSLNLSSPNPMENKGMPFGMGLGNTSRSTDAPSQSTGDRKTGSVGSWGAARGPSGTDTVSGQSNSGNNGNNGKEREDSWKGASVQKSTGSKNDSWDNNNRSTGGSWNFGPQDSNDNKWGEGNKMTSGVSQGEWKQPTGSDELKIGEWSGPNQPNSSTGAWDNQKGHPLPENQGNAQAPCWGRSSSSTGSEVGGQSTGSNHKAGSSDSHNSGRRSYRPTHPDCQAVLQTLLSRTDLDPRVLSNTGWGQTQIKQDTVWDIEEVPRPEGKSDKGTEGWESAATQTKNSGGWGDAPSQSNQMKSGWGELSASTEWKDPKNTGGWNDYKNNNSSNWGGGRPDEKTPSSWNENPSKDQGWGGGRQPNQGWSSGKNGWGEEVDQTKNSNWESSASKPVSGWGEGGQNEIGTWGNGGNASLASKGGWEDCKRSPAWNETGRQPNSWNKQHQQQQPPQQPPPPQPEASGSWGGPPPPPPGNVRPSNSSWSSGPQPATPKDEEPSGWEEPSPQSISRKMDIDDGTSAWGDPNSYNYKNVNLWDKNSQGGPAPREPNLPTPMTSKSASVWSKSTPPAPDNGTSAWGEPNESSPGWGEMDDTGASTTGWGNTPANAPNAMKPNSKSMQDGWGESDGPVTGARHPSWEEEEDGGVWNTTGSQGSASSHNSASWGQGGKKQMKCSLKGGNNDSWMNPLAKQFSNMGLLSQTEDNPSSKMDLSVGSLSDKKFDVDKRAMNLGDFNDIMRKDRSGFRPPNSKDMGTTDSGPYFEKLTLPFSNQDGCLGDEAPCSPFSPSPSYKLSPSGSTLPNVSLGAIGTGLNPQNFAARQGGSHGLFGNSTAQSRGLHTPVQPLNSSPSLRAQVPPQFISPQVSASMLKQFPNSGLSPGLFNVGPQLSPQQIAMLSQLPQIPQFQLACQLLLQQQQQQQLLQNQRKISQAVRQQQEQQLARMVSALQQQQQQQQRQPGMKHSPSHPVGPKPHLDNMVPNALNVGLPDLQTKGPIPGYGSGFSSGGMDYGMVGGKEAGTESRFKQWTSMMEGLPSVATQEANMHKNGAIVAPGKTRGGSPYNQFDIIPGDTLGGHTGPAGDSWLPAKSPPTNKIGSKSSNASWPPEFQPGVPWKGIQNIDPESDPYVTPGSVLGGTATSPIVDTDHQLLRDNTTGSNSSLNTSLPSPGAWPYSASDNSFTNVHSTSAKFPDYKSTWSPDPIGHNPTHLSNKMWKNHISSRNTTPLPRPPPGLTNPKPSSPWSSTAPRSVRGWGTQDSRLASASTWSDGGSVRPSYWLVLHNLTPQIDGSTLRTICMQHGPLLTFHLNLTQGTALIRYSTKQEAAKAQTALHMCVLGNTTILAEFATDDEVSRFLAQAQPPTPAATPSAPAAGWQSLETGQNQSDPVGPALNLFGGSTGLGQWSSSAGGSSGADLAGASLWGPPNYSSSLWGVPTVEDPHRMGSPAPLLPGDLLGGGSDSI
UniProt P17066: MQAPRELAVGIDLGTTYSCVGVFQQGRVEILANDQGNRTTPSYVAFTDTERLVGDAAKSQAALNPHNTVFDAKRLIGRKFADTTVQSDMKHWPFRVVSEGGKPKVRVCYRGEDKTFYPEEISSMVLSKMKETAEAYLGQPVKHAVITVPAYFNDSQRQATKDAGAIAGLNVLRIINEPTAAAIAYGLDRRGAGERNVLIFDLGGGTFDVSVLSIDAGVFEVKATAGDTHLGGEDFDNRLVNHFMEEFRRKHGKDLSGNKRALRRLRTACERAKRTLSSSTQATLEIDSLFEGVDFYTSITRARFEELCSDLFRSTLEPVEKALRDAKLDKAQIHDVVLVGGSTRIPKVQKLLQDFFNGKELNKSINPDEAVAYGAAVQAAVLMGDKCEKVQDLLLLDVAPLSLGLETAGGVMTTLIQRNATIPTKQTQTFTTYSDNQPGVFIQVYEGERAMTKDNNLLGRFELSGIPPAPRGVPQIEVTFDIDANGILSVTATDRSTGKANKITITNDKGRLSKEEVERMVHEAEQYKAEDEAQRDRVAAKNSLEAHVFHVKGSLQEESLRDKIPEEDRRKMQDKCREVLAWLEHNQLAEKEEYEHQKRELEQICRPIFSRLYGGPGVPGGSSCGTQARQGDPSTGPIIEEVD
UniProt P0DMV8: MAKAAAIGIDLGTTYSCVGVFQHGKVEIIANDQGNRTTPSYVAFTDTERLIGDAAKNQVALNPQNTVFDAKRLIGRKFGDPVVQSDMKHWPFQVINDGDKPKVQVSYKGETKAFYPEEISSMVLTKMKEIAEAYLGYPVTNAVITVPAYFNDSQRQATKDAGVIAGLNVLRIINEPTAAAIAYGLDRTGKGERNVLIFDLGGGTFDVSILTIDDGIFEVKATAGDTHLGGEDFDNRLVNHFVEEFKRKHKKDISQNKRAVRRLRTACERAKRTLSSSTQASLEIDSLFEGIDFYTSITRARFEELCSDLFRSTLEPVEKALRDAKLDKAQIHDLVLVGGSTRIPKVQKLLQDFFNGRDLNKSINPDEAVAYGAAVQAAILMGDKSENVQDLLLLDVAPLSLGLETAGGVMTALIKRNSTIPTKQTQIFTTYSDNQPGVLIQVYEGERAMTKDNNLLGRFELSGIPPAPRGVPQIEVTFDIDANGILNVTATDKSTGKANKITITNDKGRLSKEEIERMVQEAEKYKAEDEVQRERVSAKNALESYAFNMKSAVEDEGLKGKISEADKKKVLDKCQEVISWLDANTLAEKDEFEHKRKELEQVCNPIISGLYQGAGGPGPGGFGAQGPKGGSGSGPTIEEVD
UniProt O60506: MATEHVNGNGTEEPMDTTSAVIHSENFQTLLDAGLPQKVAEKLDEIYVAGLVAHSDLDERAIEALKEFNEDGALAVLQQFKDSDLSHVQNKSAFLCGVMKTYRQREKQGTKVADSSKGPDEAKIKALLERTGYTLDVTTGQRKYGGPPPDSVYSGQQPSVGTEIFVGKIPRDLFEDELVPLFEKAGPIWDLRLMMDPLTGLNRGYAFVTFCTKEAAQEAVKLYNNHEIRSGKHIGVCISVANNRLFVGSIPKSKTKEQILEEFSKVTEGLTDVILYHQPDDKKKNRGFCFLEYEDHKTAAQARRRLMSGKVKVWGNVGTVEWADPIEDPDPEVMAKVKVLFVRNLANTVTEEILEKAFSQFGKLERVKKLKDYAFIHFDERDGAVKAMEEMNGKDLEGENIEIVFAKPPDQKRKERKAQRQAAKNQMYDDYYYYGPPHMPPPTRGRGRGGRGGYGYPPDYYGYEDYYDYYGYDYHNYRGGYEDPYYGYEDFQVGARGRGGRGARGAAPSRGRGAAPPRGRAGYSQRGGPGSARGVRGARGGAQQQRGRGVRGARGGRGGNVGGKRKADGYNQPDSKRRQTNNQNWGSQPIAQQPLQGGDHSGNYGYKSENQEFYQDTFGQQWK
UniProt P11940: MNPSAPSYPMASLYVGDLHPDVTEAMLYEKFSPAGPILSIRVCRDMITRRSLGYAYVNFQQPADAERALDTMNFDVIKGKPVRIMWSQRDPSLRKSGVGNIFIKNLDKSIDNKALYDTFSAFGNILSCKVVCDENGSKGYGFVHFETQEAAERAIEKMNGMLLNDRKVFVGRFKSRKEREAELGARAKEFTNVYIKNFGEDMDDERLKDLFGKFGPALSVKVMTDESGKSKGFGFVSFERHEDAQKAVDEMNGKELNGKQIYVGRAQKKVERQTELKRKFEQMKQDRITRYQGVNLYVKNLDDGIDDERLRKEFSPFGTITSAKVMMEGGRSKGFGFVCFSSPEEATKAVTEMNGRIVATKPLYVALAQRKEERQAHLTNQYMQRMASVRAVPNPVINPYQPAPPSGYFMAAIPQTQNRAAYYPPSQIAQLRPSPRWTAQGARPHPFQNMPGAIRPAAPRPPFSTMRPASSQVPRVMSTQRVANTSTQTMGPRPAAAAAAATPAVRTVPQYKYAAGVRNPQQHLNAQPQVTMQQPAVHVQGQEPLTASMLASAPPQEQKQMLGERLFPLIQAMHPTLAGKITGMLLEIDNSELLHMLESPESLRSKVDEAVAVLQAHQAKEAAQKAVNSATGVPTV

Each substance was assayed against T1, FLAG-tagged DND1 wild-type (Dead End, full-length human protein 1-353) (human) (UniProt Q8IYX4) (assay: affinity purification with mass spectrometry; lysate of HEK293T cells transfected with FLAG-tagged DND1 WT, R98A or 1-235 on FLAG-M2 magnetic beads overnight at 4 °C; IP-Lysis buffer 50 mM Tris-HCl pH 7.4, 150 mM NaCl, 1 mM EDTA, 0.5% Triton X-100; trypsin digestion on the beads, shotgun LC-MS/MS; three biological replicates; no RNase treatment described).
T1 sequence: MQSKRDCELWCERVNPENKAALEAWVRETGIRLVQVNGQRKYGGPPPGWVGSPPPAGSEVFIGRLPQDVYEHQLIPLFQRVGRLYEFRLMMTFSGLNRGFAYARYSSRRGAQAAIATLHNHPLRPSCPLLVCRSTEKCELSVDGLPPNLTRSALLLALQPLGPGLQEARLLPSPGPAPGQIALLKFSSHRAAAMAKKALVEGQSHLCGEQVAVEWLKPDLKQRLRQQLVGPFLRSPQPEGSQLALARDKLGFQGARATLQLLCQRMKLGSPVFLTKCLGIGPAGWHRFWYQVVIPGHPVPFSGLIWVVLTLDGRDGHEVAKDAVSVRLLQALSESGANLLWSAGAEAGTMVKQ

binding, binds:
DDX17 (from UniProt Q92841 1-729)
TNRC6B (from UniProt Q9UPQ9 1-1833)
HSPA6 (from UniProt P17066 1-643)
HSPA1A (from UniProt P0DMV8 1-641)
SYNCRIP (from UniProt O60506 1-623)
PABPC1 (from UniProt P11940 1-636)
